Data published in the supplement of paper PMC10849652.
The list shows a part of the results.

The chains behind the UniProt entries cited, without tags or fusion partners. Where a name states a change or a piece, a line headed by the entry shows the natural chain unless it says otherwise.
UniProt Q96B23: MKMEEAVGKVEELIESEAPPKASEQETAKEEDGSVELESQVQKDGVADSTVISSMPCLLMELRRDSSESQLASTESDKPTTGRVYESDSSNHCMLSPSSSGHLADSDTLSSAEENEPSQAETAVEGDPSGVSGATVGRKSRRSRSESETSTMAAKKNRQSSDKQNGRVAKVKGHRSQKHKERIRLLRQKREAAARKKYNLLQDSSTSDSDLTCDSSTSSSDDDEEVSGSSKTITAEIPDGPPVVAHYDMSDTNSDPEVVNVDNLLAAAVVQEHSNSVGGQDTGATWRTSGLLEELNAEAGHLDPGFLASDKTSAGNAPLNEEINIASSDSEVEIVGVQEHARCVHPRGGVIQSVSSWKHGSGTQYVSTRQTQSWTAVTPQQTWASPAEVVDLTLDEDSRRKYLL
UniProt Q96K31: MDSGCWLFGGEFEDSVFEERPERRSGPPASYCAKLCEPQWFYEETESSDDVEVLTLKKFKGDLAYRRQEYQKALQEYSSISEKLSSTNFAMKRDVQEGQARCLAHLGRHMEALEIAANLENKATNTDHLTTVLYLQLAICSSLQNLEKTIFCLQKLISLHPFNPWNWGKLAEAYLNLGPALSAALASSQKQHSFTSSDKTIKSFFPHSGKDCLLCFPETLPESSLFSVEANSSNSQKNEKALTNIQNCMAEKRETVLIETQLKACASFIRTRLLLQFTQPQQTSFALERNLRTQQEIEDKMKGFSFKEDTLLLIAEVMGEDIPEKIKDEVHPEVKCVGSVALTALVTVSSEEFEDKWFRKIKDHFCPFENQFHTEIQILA
UniProt Q9H0W9: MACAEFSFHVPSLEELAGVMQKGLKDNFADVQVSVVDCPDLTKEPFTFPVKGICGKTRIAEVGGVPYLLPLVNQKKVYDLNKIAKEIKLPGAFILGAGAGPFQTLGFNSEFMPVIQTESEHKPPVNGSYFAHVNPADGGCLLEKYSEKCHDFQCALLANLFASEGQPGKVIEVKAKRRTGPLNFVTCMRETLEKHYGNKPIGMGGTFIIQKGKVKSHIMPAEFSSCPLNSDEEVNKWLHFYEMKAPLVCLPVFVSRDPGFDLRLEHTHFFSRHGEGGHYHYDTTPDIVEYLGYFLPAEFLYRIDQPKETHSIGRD
UniProt Q8N6N3: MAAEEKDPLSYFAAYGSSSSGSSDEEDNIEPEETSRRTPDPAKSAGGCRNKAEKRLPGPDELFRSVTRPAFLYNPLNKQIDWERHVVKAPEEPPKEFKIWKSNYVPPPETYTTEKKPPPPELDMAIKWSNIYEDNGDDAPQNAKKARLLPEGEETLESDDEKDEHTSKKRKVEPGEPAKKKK
UniProt Q96RR4, whole entry, looked up: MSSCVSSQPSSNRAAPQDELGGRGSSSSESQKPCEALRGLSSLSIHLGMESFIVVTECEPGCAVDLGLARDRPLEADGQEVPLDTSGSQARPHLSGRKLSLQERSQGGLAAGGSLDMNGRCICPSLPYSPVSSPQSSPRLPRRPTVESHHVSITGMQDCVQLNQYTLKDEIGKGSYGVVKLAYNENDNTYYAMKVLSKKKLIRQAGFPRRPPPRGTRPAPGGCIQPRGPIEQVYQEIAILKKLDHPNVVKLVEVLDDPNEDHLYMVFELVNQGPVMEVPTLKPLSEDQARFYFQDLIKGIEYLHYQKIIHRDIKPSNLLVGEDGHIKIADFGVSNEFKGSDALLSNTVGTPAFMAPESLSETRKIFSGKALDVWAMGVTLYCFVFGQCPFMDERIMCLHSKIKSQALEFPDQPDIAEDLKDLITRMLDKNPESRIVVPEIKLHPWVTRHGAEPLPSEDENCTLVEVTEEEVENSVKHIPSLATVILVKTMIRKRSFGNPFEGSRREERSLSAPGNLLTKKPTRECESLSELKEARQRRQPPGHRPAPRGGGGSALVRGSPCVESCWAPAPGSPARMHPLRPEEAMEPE
UniProt Q96F05: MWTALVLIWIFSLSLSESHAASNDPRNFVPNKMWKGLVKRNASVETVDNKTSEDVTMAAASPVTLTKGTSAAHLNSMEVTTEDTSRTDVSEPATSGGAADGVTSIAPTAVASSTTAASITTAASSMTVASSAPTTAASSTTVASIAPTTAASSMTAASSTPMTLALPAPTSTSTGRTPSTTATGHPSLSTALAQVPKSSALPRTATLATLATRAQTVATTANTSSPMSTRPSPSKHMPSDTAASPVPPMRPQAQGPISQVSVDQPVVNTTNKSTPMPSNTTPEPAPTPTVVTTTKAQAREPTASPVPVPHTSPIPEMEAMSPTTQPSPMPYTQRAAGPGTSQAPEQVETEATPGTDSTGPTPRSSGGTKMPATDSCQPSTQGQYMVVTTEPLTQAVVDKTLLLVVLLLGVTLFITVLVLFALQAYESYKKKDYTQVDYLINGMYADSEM
UniProt P05937: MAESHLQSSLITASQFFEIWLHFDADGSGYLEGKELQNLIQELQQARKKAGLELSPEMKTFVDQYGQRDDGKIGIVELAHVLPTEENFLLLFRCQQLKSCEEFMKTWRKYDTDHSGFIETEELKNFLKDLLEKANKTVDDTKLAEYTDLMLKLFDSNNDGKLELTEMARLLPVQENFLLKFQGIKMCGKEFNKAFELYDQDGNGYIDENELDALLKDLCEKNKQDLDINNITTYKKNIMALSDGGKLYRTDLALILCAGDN
UniProt Q8WUR7: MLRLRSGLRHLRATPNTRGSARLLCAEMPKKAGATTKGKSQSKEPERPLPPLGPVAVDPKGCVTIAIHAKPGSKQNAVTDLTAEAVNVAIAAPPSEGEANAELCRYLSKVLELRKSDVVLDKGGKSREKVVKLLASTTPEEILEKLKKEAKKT
UniProt Q6P5X5: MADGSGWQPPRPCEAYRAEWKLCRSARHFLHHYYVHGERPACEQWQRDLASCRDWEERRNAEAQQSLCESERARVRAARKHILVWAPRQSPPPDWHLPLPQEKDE
UniProt P49069: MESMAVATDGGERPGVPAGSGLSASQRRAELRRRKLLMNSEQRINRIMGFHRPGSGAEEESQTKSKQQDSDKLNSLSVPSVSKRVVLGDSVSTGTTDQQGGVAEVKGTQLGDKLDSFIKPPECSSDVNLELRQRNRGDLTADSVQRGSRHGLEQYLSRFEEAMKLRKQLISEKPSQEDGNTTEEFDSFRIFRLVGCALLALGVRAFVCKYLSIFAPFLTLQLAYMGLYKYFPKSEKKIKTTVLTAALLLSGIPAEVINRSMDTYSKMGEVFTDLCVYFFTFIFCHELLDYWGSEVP
UniProt Q7L1Q6: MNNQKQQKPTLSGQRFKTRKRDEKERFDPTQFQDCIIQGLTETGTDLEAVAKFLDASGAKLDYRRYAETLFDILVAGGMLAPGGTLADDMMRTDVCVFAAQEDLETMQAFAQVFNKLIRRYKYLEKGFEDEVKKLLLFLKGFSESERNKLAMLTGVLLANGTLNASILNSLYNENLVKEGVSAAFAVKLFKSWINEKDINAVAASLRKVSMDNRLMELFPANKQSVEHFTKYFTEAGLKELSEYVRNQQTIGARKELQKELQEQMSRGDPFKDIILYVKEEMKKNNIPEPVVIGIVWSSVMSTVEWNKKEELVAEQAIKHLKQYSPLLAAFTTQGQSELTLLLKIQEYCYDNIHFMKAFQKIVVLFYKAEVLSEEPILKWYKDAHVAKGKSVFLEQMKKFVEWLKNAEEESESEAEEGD
UniProt P47756, whole entry, looked up: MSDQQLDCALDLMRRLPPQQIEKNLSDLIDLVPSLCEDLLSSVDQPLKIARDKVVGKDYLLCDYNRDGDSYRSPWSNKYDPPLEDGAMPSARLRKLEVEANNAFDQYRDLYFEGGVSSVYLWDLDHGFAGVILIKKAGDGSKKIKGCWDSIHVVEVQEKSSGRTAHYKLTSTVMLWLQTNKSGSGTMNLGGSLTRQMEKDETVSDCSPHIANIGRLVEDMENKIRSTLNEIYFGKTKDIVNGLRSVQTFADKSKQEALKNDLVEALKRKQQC
UniProt Q9NZ63: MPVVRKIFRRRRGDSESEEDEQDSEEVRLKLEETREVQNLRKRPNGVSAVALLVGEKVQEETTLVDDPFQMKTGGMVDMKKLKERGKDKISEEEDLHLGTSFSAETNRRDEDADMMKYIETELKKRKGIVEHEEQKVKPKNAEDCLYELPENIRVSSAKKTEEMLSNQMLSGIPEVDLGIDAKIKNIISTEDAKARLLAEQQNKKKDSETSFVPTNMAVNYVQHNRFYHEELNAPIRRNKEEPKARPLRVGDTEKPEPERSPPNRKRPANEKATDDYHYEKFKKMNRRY
UniProt Q9NX04: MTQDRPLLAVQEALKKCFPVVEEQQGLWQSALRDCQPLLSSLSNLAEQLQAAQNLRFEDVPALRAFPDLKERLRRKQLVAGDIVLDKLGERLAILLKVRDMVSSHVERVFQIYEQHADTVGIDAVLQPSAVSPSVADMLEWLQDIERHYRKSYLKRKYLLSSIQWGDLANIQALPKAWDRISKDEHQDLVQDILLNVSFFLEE
UniProt Q8IXQ3: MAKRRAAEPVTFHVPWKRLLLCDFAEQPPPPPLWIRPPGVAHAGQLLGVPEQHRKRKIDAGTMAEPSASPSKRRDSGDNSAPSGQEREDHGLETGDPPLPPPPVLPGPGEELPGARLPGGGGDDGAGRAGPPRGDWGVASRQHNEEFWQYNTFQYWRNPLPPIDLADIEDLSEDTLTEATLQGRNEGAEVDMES
UniProt Q8TCD1: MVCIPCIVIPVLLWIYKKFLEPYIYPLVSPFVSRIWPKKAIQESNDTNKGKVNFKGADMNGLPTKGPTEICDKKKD
UniProt Q9Y2V2: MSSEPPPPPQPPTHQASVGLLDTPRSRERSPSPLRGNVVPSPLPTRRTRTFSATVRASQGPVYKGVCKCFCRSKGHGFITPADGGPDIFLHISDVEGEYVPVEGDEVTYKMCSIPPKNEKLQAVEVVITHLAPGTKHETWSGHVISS
UniProt Q9HB71, whole entry, looked up: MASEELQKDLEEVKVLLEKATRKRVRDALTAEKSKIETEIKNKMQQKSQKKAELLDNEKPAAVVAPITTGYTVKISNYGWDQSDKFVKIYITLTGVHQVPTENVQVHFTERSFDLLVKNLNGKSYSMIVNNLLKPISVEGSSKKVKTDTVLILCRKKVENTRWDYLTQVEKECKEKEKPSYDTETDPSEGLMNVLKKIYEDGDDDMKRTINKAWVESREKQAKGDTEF
UniProt Q9Y2G2: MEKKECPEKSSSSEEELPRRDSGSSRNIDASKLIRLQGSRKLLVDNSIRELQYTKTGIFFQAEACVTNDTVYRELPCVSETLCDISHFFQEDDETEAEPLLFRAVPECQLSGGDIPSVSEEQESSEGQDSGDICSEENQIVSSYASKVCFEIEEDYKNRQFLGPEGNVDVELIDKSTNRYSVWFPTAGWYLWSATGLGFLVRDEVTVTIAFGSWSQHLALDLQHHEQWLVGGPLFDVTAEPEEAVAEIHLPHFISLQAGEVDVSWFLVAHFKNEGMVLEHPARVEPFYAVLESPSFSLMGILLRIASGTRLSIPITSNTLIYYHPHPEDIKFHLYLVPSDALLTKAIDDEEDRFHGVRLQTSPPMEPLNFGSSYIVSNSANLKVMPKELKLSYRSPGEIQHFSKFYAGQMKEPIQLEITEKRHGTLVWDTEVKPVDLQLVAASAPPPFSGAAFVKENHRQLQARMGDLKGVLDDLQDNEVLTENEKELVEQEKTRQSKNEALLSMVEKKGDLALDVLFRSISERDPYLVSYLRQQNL
UniProt Q13895: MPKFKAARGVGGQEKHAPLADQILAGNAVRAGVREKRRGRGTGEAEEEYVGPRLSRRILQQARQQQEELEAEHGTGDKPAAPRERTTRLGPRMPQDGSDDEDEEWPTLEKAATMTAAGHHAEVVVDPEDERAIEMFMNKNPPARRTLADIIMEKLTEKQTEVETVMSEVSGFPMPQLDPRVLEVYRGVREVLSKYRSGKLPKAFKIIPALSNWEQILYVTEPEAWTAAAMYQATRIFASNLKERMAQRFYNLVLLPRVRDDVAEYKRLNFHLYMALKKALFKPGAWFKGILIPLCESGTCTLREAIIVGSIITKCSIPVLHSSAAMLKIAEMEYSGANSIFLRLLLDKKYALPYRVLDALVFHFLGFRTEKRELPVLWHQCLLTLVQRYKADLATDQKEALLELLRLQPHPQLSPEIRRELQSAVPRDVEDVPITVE
UniProt Q96EU7: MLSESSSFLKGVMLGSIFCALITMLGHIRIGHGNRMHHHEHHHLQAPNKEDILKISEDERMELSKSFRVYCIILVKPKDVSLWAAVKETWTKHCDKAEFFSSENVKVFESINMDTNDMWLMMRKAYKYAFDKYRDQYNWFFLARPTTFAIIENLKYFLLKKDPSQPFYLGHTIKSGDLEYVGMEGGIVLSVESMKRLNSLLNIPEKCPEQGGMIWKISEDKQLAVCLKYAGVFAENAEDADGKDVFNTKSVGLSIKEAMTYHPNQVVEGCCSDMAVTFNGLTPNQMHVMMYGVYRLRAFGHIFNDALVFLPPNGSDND
UniProt Q8IYL3: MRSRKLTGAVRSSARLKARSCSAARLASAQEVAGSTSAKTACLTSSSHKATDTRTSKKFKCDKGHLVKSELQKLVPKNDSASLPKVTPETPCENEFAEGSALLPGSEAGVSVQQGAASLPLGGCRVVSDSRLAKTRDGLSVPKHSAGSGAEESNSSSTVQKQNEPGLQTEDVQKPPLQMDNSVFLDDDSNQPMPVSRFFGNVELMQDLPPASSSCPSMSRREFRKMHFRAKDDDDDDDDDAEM

Columns and labels:
Assay in all cases: log2 fold change, soluble protein after heating vs DMSO (PISA); higher = thermal stabilisation; K562 cells, 10 uM, 30 min; active = over 0.2 and 3.5 SD of the protein, either way, in both replicates (recomputed)
erlotinib = compound: C#Cc1cccc(Nc2ncnc3cc(OCCOC)c(OCCOC)cc23)c1 [erlotinib]
Procedure, shortened: (§1)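 Values are thermal stability changes relative to control samples and are taken from duplicates. They are stated as log2 fold changes. Before quantification by TMTpro 16plex LC-MS/MS with equalised channel sums, K562 cells at 2×10^6 cells/mL were treated with 10 μM compound for 30 min, heated in aliquots for 3 min across 48°C-58°C, pooled, extracted in PBS with 0.5% NP-40 at 4°C, and centrifuged at 21,000xg for 90 min to give the soluble supernatant.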

[1] = compound: C/C(=N\NC(=O)C1=CC(=CC=C1)S(=O)(=O)N2CCOCC2)/C3=C(C=CC(=C3)Cl)O
Procedure, shortened: as §1

[2] = compound: C1=CC(=C(C=C1Cl)C2=NC3=NC=CN=C3C(=N2)NC4=CC=NC=C4)F
Procedure, shortened: as §1

[3] = compound: C1=CC(=CC=C1C2=NC3=C(N2)C=C(C=C3)C(=O)N)OC4=CC=C(C=C4)Cl
Procedure, shortened: as §1

[4] = compound: C1=CC2=C(C=CC(=C2)/C=C\3/C(=O)NC(=NCC4=CC=CS4)S3)N=C1
Procedure, shortened: as §1

[5] = compound: C1=CC2=NC=CN=C2C=C1/C=C/3\C(=O)NC(=O)S3
Procedure, shortened: as §1

[6] = compound: C1=CC=C(C=C1)C2=NC(=C(N2)C3=CC=NC=C3)C4=CC(=C(C=C4)Cl)O
Procedure, shortened: as §1

[7] = compound: C1=CC=C2C(=C1)C3=NNC4=CC=CC(=C43)C2=O
Procedure, shortened: as §1

[8] = compound: C1CCN(C1)C(=O)NC2=CC=CC(=C2)NC3=NC=C(C(=N3)NCCC4=CN=CN4)Br
Procedure, shortened: as §1

[9] = compound: C1CN(CCC1(CC2=CC=C(C=C2)Cl)N)C3=NC=NC4=C3C=CN4
Procedure, shortened: as §1

Measured: log2 fold change

C18orf25 (UniProt Q96B23)
inactive: erlotinib -0.008 | [1] -0.013 | [2] 0 | [3] 0.064 | [4] -0.035 | [5] 0.057 | [6] 0.017 | [7] -0.009 | [8] -0.019 | [9] 0.058

C8orf76 (UniProt Q96K31)
inactive: erlotinib -0.044 | [1] 0.049 | [2] 0.027 | [3] 0.043 | [4] -0.031 | [5] 0.032 | [6] -0.068 | [7] 0.075 | [8] -0.013 | [9] 0.04

C11orf98 (UniProt E9PRG8)
inactive: erlotinib -0.158 | [1] -0.14 | [2] -0.427 | [3] 0.039 | [4] -0.04 | [5] 0.012 | [6] -0.062 | [7] 0.023 | [8] 0.073 | [9] -0.046

BZW2 (UniProt Q9Y6E2)
inactive: erlotinib -0.018 | [1] 0.106 | [2] 0.054 | [3] -0.016 | [4] 0.033 | [5] 0.026 | [6] 0.022 | [7] 0.013 | [8] 0.037 | [9] -0.021

C3orf33 (UniProt Q6P1S2)
inactive: erlotinib -0.019 | [1] -0.07 | [2] -0.188 | [3] 0.145 | [4] 0.107 | [5] 0 | [6] -0.039 | [7] -0.009 | [8] 0.007 | [9] 0

C11orf54 (UniProt Q9H0W9)
inactive: erlotinib -0.045 | [1] -0.019 | [2] 0.062 | [3] 0.008 | [4] -0.057 | [5] 0.005 | [6] 0.039 | [7] -0.009 | [8] -0.043 | [9] 0.003

C1orf131 isoform 5 (UniProt Q8NDD1)
inactive: erlotinib -0.051 | [1] -0.169 | [2] -0.303 | [3] -0.001 | [4] -0.053 | [5] 0 | [6] -0.092 | [7] -0.025 | [8] 0.139 | [9] -0.096

Quoted from the results shown (two entries):
C11orf54 (UniProt Q9H0W9)
inactive: erlotinib -0.045 | [1] -0.019 | [2] 0.062 | [3] 0.008 | [4] -0.057 | [5] 0.005 | [6] 0.039 | [7] -0.009 | [8] -0.043 | [9] 0.003

C1orf131 isoform 5 (UniProt Q8NDD1)
inactive: erlotinib -0.051 | [1] -0.169 | [2] -0.303 | [3] -0.001 | [4] -0.053 | [5] 0 | [6] -0.092 | [7] -0.025 | [8] 0.139 | [9] -0.096

(next part)

C1orf52 (UniProt Q8N6N3)
inactive: erlotinib 0.025 | [1] -0.046 | [2] -0.017 | [3] 0.013 | [4] -0.026 | [5] 0.05 | [6] 0.018 | [7] -0.005 | [8] -0.009 | [9] 0.022

CAMKK2 (UniProt Q96RR4)
inactive: erlotinib -0.091 | [1] -0.047 | [2] -0.026 | [3] -0.232 | [4] -0.059 | [5] -0.081 | [6] -0.122 | [7] -0.037 | [8] -0.19 | [9] 0.23

C11orf24 (UniProt Q96F05)
inactive: erlotinib 0.302 | [1] -0.052 | [2] -0.062 | [3] 0.009 | [4] 0.115 | [5] 0.182 | [6] 0.04 | [7] 0.024

CALB1 (UniProt P05937)
inactive: erlotinib -0.011 | [1] -0.001 | [2] 0.067 | [3] 0.032 | [4] -0.033 | [5] 0.055 | [6] -0.01 | [7] 0.027 | [8] 0.019 | [9] -0.026

C15orf40 (UniProt Q8WUR7)
inactive: erlotinib 0.036 | [1] -0.125 | [2] -0.088 | [3] -0.019 | [4] 0.053 | [5] 0.07 | [6] -0.107 | [7] -0.08 | [8] 0.052 | [9] 0.044

BTF3L4 (UniProt Q96K17)
inactive: erlotinib 0.004 | [1] 0.056 | [2] -0.004 | [3] -0.002 | [4] -0.027 | [5] 0.023 | [6] -0.012 | [7] 0.007 | [8] -0.017 | [9] 0.062

C22orf39 (UniProt Q6P5X5)
inactive: erlotinib -0.256 | [1] -0.02 | [2] -0.018 | [3] 0.02 | [4] -0.014 | [5] 0.051 | [6] -0.023 | [7] -0.004 | [8] 0.037 | [9] 0.02

CAMLG (UniProt P49069)
inactive: erlotinib 0.012 | [1] 0.031 | [2] -0.016 | [3] 0.032 | [4] 0.056 | [5] 0.017 | [6] -0.029 | [7] -0.086 | [8] -0.023 | [9] 0.082

BZW1 isoform 3 (UniProt Q7L1Q6)
inactive: erlotinib 0.049 | [1] 0.176 | [2] -0.001 | [3] -0.088 | [4] 0.054 | [5] 0.019 | [6] 0.042 | [7] 0.039 | [8] -0.059 | [9] -0.101

CAPZB isoform 2 (UniProt P47756)
inactive: erlotinib -0.007 | [1] -0.024 | [2] 0.075 | [3] -0.074 | [4] -0.033 | [5] 0.055 | [6] 0.024 | [7] -0.013 | [8] 0.067 | [9] 0.02

C9orf78 (UniProt Q9NZ63)
inactive: erlotinib 0.036 | [1] -0.022 | [2] 0.046 | [3] -0.001 | [4] -0.04 | [5] 0.034 | [6] 0.013 | [7] -0.031 | [8] 0.025 | [9] 0.032

C1orf109 (UniProt Q9NX04)
inactive: erlotinib -0.046 | [1] -0.044 | [2] -0.133 | [3] -0.042 | [4] 0.01 | [5] 0.093 | [6] -0.061 | [7] 0.01 | [8] 0.061 | [9] 0.031

C9orf40 (UniProt Q8IXQ3)
inactive: erlotinib 0.033 | [1] -0.03 | [2] -0.078 | [3] 0.032 | [4] -0.189 | [5] -0.015 | [6] -0.041 | [7] -0.014 | [8] 0.013 | [9] -0.022

C18orf32 (UniProt Q8TCD1)
inactive: erlotinib -0.019 | [1] -0.035 | [2] 0.194 | [3] -0.014 | [4] 0.09 | [5] 0.099 | [6] 0.001 | [7] 0.111 | [8] -0.062 | [9] -0.044

CARHSP1 (UniProt Q9Y2V2)
inactive: erlotinib 0.002 | [1] 0.003 | [2] 0.037 | [3] 0.014 | [4] 0.033 | [5] -0.06 | [6] -0.02 | [7] -0.055 | [8] -0.05 | [9] -0.107

CACYBP (UniProt Q9HB71)
inactive: erlotinib 0.021 | [1] 0.032 | [2] 0.011 | [3] -0.031 | [4] -0.019 | [5] 0.018 | [6] 0.023 | [7] 0.034 | [8] 0.027 | [9] 0.01

CAPZB (UniProt P47756)
inactive: erlotinib 0.015 | [1] -0.006 | [2] 0.017 | [3] -0.014 | [4] 0.032 | [5] -0.005 | [6] -0.043 | [7] -0.016 | [8] 0.01 | [9] 0.01

CARD8 isoform 5 (UniProt Q9Y2G2)
inactive: erlotinib 0.078 | [1] 0.016 | [2] 0.08 | [3] 0.077 | [4] 0.037 | [5] -0.145 | [6] -0.077 | [7] 0 | [8] -0.018 | [9] 0.04

BYSL (UniProt Q13895)
inactive: erlotinib -0.009 | [1] 0.014 | [2] -0.05 | [3] -0.006 | [4] -0.046 | [5] 0.027 | [6] -0.018 | [7] 0.075 | [8] -0.042 | [9] -0.289

CAP1 (UniProt Q01518)
inactive: erlotinib -0.067 | [1] -0.001 | [2] 0.056 | [3] 0.016 | [4] 0.005 | [5] 0.001 | [6] 0.023 | [7] -0.005 | [8] 0.009 | [9] -0.006

C1GALT1C1 (UniProt Q96EU7)
inactive: erlotinib 0.014 | [1] 0.027 | [2] -0.048 | [3] 0.01 | [4] 0.022 | [5] 0.053 | [6] 0.004 | [7] -0.004 | [8] -0.014 | [9] 0.066

C8orf88 (UniProt P0DMB2)
inactive: erlotinib -0.035 | [1] -0.171 | [2] -0.017 | [3] -0.067 | [4] 0.269 | [5] 0.06 | [6] 0.107 | [7] -0.287

C1orf174 (UniProt Q8IYL3)
inactive: erlotinib 0.049 | [1] 0.173 | [2] -0.06 | [3] 0 | [4] 0.067 | [5] -0.031 | [6] 0.13 | [7] 0.29 | [8] 0.046 | [9] 0.16
